In publication PMC6588547:
These are yes or no findings as the source states them, for the method shown. For some of these results: Binding seen in cells or lysates may run through a third protein. Some results given as binding are weak or reduced against the parent protein; the word gives no strength. For some of these results: Where a sequence is shown, tags or fusion partners need not be part of it. One block for each binder: values may come before it.

Tests used:
[1] = target: T1, SLENDER RICE 1 (SLR1), full length, fused with GAL4 BD (rice (Oryza sativa L. spp. Japonica)) (UniProt Q7G7J6); assay: two-hybrid; SLR1 and its truncations fused with GAL4 BD (pGBKT7), MOC1 and its truncations fused with GAL4 AD (pGADT7); tested on SD/-Trp/-Leu/-His/-Ade/X-α-Gal medium
T1 sequence: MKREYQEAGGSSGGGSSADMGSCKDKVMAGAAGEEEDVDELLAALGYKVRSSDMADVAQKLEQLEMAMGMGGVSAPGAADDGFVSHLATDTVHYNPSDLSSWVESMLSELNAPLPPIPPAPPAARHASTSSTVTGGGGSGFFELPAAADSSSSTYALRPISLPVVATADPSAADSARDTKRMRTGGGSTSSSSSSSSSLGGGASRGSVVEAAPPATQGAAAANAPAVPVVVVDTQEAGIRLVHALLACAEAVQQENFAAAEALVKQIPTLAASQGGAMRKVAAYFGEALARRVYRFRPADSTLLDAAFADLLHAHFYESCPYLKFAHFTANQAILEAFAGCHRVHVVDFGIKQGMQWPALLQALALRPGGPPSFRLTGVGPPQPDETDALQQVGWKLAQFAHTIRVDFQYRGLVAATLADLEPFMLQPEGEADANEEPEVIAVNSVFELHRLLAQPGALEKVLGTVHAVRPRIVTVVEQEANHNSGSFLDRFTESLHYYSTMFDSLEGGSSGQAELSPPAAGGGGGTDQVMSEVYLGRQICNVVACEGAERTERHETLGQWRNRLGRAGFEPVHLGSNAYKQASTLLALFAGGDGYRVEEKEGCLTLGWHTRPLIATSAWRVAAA

[2] = target: T2, CC-SLR1 (rice (Oryza sativa L. spp. Japonica)) (UniProt Q7G7J6); assay: split reporter; BiFC with N- and C-terminal portions of enhanced CFP (pSCYNE, pSCYCE) in rice protoplasts, 14 h in the dark, confocal microscopy
T2 sequence: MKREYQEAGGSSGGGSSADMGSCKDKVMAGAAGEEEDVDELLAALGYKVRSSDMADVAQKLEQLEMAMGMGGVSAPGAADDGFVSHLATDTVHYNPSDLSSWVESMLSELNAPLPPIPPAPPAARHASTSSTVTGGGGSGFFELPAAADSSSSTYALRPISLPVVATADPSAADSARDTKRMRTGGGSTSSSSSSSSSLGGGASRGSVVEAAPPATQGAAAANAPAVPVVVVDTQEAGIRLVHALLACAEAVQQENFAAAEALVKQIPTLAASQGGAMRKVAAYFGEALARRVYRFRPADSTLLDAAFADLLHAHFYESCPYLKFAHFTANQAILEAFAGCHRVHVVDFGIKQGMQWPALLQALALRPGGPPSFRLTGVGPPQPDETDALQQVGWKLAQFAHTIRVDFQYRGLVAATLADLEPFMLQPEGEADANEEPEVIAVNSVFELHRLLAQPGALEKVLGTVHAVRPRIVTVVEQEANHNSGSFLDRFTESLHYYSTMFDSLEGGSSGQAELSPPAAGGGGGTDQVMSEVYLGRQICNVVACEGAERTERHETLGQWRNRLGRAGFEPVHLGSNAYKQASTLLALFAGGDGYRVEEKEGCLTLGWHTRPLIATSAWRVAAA

[3] = target: T3, SLR1-GFP (transient, rice protoplasts) (rice (Oryza sativa L. spp. Japonica)) (UniProt Q7G7J6); assay: co-IP; MOC1-FLAG and SLR1-GFP transiently co-expressed in rice protoplasts, 14 h; extracts immunoprecipitated with anti-GFP, probed with anti-FLAG
T3 sequence: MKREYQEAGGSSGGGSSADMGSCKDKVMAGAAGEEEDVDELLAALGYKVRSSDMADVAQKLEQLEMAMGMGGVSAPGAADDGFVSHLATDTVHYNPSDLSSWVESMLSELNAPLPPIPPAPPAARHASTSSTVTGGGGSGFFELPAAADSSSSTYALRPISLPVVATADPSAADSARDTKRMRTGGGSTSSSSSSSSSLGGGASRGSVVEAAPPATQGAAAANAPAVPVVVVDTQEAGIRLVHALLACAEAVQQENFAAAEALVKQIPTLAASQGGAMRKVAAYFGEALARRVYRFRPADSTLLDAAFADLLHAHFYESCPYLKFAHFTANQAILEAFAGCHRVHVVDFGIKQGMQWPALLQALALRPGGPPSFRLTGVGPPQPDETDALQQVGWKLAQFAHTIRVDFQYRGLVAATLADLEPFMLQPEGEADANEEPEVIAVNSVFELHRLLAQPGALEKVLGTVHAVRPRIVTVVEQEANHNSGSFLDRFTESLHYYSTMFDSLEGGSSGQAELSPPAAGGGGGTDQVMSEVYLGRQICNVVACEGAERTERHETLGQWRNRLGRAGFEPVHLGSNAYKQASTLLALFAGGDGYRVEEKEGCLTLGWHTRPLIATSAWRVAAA

[4] = target: T4, GST-MOC1 (rice (Oryza sativa L. spp. Japonica)) (UniProt Q84MM9); assay: pull-down; 1 μg of GST-MOC1 or GST bound to glutathione beads, incubated with 1 mL of total proteins from SLR1-GFPOE calli in extraction buffer at 4 °C for 2 h, washed three times; anti-GFP immunoblot; only the target purified
T4 sequence: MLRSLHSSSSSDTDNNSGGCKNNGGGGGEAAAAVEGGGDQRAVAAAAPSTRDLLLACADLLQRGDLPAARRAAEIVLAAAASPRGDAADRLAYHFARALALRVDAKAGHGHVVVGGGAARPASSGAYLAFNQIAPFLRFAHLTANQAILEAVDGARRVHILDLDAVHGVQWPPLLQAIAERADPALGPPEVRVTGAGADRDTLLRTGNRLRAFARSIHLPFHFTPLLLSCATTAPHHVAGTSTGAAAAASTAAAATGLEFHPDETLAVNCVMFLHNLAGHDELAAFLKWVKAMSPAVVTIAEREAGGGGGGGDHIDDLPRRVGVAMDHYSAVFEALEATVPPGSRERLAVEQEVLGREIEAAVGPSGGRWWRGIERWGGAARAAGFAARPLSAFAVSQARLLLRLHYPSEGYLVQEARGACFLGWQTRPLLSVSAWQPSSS

B1: MONOCULM 1 (MOC1), full length, fused with GAL4 AD (protein, UniProt Q84MM9 1-441)
chain: MLRSLHSSSSSDTDNNSGGCKNNGGGGGEAAAAVEGGGDQRAVAAAAPSTRDLLLACADLLQRGDLPAARRAAEIVLAAAASPRGDAADRLAYHFARALALRVDAKAGHGHVVVGGGAARPASSGAYLAFNQIAPFLRFAHLTANQAILEAVDGARRVHILDLDAVHGVQWPPLLQAIAERADPALGPPEVRVTGAGADRDTLLRTGNRLRAFARSIHLPFHFTPLLLSCATTAPHHVAGTSTGAAAAASTAAAATGLEFHPDETLAVNCVMFLHNLAGHDELAAFLKWVKAMSPAVVTIAEREAGGGGGGGDHIDDLPRRVGVAMDHYSAVFEALEATVPPGSRERLAVEQEVLGREIEAAVGPSGGRWWRGIERWGGAARAAGFAARPLSAFAVSQARLLLRLHYPSEGYLVQEARGACFLGWQTRPLLSVSAWQPSSS
binding [1]: binds

B4: SLR1-GFP (from SLR1-GFPOE calli) (protein, UniProt Q7G7J6 1-625)
chain: MKREYQEAGGSSGGGSSADMGSCKDKVMAGAAGEEEDVDELLAALGYKVRSSDMADVAQKLEQLEMAMGMGGVSAPGAADDGFVSHLATDTVHYNPSDLSSWVESMLSELNAPLPPIPPAPPAARHASTSSTVTGGGGSGFFELPAAADSSSSTYALRPISLPVVATADPSAADSARDTKRMRTGGGSTSSSSSSSSSLGGGASRGSVVEAAPPATQGAAAANAPAVPVVVVDTQEAGIRLVHALLACAEAVQQENFAAAEALVKQIPTLAASQGGAMRKVAAYFGEALARRVYRFRPADSTLLDAAFADLLHAHFYESCPYLKFAHFTANQAILEAFAGCHRVHVVDFGIKQGMQWPALLQALALRPGGPPSFRLTGVGPPQPDETDALQQVGWKLAQFAHTIRVDFQYRGLVAATLADLEPFMLQPEGEADANEEPEVIAVNSVFELHRLLAQPGALEKVLGTVHAVRPRIVTVVEQEANHNSGSFLDRFTESLHYYSTMFDSLEGGSSGQAELSPPAAGGGGGTDQVMSEVYLGRQICNVVACEGAERTERHETLGQWRNRLGRAGFEPVHLGSNAYKQASTLLALFAGGDGYRVEEKEGCLTLGWHTRPLIATSAWRVAAA
binding [4]: binds

Now from value to binder:

binding [2]: binds
B2: CN-MOC1 (protein, UniProt Q84MM9 1-441)
chain: MLRSLHSSSSSDTDNNSGGCKNNGGGGGEAAAAVEGGGDQRAVAAAAPSTRDLLLACADLLQRGDLPAARRAAEIVLAAAASPRGDAADRLAYHFARALALRVDAKAGHGHVVVGGGAARPASSGAYLAFNQIAPFLRFAHLTANQAILEAVDGARRVHILDLDAVHGVQWPPLLQAIAERADPALGPPEVRVTGAGADRDTLLRTGNRLRAFARSIHLPFHFTPLLLSCATTAPHHVAGTSTGAAAAASTAAAATGLEFHPDETLAVNCVMFLHNLAGHDELAAFLKWVKAMSPAVVTIAEREAGGGGGGGDHIDDLPRRVGVAMDHYSAVFEALEATVPPGSRERLAVEQEVLGREIEAAVGPSGGRWWRGIERWGGAARAAGFAARPLSAFAVSQARLLLRLHYPSEGYLVQEARGACFLGWQTRPLLSVSAWQPSSS

binding [3]: binds
B3: MOC1-FLAG (protein, UniProt Q84MM9 1-441)
chain: MLRSLHSSSSSDTDNNSGGCKNNGGGGGEAAAAVEGGGDQRAVAAAAPSTRDLLLACADLLQRGDLPAARRAAEIVLAAAASPRGDAADRLAYHFARALALRVDAKAGHGHVVVGGGAARPASSGAYLAFNQIAPFLRFAHLTANQAILEAVDGARRVHILDLDAVHGVQWPPLLQAIAERADPALGPPEVRVTGAGADRDTLLRTGNRLRAFARSIHLPFHFTPLLLSCATTAPHHVAGTSTGAAAAASTAAAATGLEFHPDETLAVNCVMFLHNLAGHDELAAFLKWVKAMSPAVVTIAEREAGGGGGGGDHIDDLPRRVGVAMDHYSAVFEALEATVPPGSRERLAVEQEVLGREIEAAVGPSGGRWWRGIERWGGAARAAGFAARPLSAFAVSQARLLLRLHYPSEGYLVQEARGACFLGWQTRPLLSVSAWQPSSS
